PubChem BioAssay AID652259, Drosophila RNAi Screening Center | 2013
In all, the deposit lists about 22,000 reagents; below is a random part of those that have a named target and a result. Of all reagents, 233 (1.1%) are marked active. 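Light values are raw, unnormalised plate reads; the ratio scores behind the reporter calls were not deposited.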 Unmarked entries are inactive. No sequences are given here. Not given: the amount of reagent, the time to read-out, the dose of the treatment.

Aim: 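Knock-downs that push a Wingless-driven reporter up or down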 (primary screen)
System: Drosophila clone 8 imaginal disc epithelial cells
Knock-down reagent: long dsRNA against Drosophila genes
Conditions: pathway stimulated by co-transfected Wingless expression plasmid
Measured: 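Firefly luciferase from a tcf-site Wingless reporter, measured alongside co-transfected Renilla luciferase that tracks transfection; pathway stimulated by a Wingless plasmid; the firefly-to-Renilla ratio is not deposited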
Direction: firefly reporter light: higher = more Wg reporter light, before normalisation; Renilla control light: higher = more transfected or surviving cells
Active means: 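Strong candidates differ from their plate mean by at least two out of four per-plate statistical tests; weak candidates meet just one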
Meaning of the calls: active = candidate regulator (raises or lowers reporter); inactive = not a candidate

Target gene | dsRNA | reporter change call, replicate 1 | firefly reporter light, replicate 1 | firefly reporter light, replicate 2 | Renilla control light, replicate 1 | Renilla control light, replicate 2
shps (GeneID 42892) | DRSC14614 | – | 13190 | – | 13915 | –
Tim17b1 (GeneID 40635) | DRSC12179 | – | 16541 | – | 5089 | –
Mic26-27 (GeneID 41959) | DRSC15913 | – | 3664 | 10761 | 1016 | 3289
CG15525 (GeneID 43556) | DRSC15062 | – | 7432 | – | 3168 | –
Taf6 (GeneID 40134) | DRSC11299 | Wg reporter activity raised (active) | 19682 | – | 1463 | –
CG18530 (GeneID 59241) | DRSC15341 | – | 15596 | – | 5250 | –
CG15650 (GeneID 37373) | DRSC04241 | – | 1778 | 5666 | 560 | 2148
CG11593 (GeneID 38477) | DRSC08206 | – | 3914 | – | 1907 | –
CG34107 (GeneID 4379852) | DRSC14554 | – | 20041 | – | 5485 | –
CG13310 (GeneID 39007) | DRSC09981 | Wg reporter activity lowered (active) | 602 | 5872 | 976 | 3015
CG13075 (GeneID 39756) | DRSC09958 | – | 7820 | – | 3427 | –
Sap30 (GeneID 32664) | DRSC19916 | – | 11558 | – | 7901 | –
eve (GeneID 36039) | DRSC07614 | – | 5232 | 5720 | 568 | 2298
CG15237 (GeneID 35591) | DRSC04971 | – | 2914 | 6273 | 224 | 3428
Hyccin (GeneID 37019) | DRSC06983 | – | 16229 | – | 4260 | –
CG33269 (GeneID 2768983) | DRSC10585 | – | 5045 | – | 2298 | –
CG31848 (GeneID 318980) | DRSC01309 | – | 15413 | – | 8861 | –
CG42834 (GeneID 10178910) | DRSC13234 | – | 2921 | – | 1520 | –
CG10051 (GeneID 37222) | DRSC05959 | – | 5211 | – | 2272 | –
eIF2Bepsilon (GeneID 31156) | DRSC18769 | – | 2554 | 5984 | 1088 | 2244
Axn (GeneID 43565) | DRSC14120 | Wg reporter activity raised (active) | 23689 | 37908 | 1305 | 2560
sli (GeneID 36746) | DRSC07684 | – | 3084 | – | 1813 | –
sli (GeneID 36746) | DRSC22936 | – | 4.57e5 | 5.03e5 | 2.14e5 | 1.19e5
Apl (GeneID 59216) | DRSC10350 | – | 9480 | – | 4119 | –
MKP-4 (GeneID 32963) | DRSC19567 | – | 2994 | 7495 | 929 | 2121
Uro (GeneID 34060) | DRSC03469 | – | 3318 | 8900 | 1808 | 4179
CG15140 (GeneID 5740546) | DRSC02440 | – | 3424 | 8949 | 1626 | 4112
CG3792 (GeneID 33717) | DRSC02725 | – | 2068 | 5465 | 780 | 2072
CG7881 (GeneID 35521) | DRSC04898 | – | 1849 | 7394 | 611 | 1896
scaf (GeneID 35505) | DRSC04849 | – | 6419 | – | 2501 | –
CG6972 (GeneID 42684) | DRSC16159 | – | 24524 | – | 18103 | –
Cdk1 (GeneID 34411) | DRSC03504 | Wg reporter activity lowered (active) | 4232 | – | 2076 | –
CG32652 (retired record) (GeneID 318141) | DRSC18942 | – | 4725 | – | 1597 | –
CG32652 (retired record) (GeneID 318141) | DRSC22662 | – | 6.23e5 | 7.06e5 | 3.06e5 | 3.87e5
Ssadh (GeneID 43092) | DRSC15621 | – | 3249 | 5873 | 808 | 1988
Psf3 (GeneID 31967) | DRSC18216 | – | 12528 | – | 10145 | –
Psf3 (GeneID 31967) | DRSC21487 | – | 4.37e5 | 4.62e5 | 2.03e5 | 1.67e5
CG12661 (GeneID 31822) | DRSC17864 | – | 17632 | – | 10187 | –
Pex11c (GeneID 42751) | DRSC14677 | – | 19005 | – | 19584 | –
Vps13B (GeneID 43550) | DRSC15060 | – | 5954 | – | 2765 | –
CG32436 (GeneID 40362) | DRSC11683 | – | 14640 | – | 4497 | –
CG32436 (GeneID 40362) | DRSC11796 | – | 9037 | – | 3169 | –
Fatp2 (GeneID 37657) | DRSC03971 | – | 16528 | 6.34e5 | 8838 | 3.04e5
Fatp2 (GeneID 37657) | DRSC04178 | – | 2338 | 8626 | 779 | 2869
Fatp2 (GeneID 37657) | DRSC04330 | – | 4332 | 10273 | 1063 | 2706
yl (GeneID 32367) | DRSC20387 | – | 19865 | – | 9642 | –
foi (GeneID 38976) | DRSC10719 | – | 3929 | 11901 | 1275 | 3432
CG15927 (GeneID 32193) | DRSC19742 | – | 19733 | – | 10082 | –
CG3687 (GeneID 36803) | DRSC06850 | – | 4736 | – | 2210 | –

Reagents listed above called active (4):
Target gene | dsRNA | reporter change call, replicate 1 | firefly reporter light, replicate 1 | firefly reporter light, replicate 2 | Renilla control light, replicate 1 | Renilla control light, replicate 2
Taf6 (GeneID 40134) | DRSC11299 | Wg reporter activity raised (active) | 19682 | – | 1463 | –
CG13310 (GeneID 39007) | DRSC09981 | Wg reporter activity lowered (active) | 602 | 5872 | 976 | 3015
Axn (GeneID 43565) | DRSC14120 | Wg reporter activity raised (active) | 23689 | 37908 | 1305 | 2560
Cdk1 (GeneID 34411) | DRSC03504 | Wg reporter activity lowered (active) | 4232 | – | 2076 | –
